Hit rate of the full screen: of about 400,000 compounds, about 13,000 (3.2%) were called active. The inconclusive results got no clear call from the source; some entries with a clear call stand among them for comparison. Calls come from the whole dose curve; as a rule, active = well fitted cell-killing curve with a large enough effect; inconclusive = small, poorly fitted or top-dose-only effect, or effect the other way; inactive = flat fitted curve, though single readings scatter. Potencies beside an inconclusive call are fits to weak or partial responses and may not hold up.
Assay: qHTS assay for MDR1-selective chemotherapeutics: Primary screen using the drug-selected MDR subline cells KB-V1; note: nearly all actives have a fitted effect of over 60% in size
Details: KB-V1 MDR cells viability, CellTiter-Glo, 72 h; activity change, negative = cytotoxicity: at 46.1 µM (top of the series)
Method in brief: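 KB-V1 MDR subline cells in DMEM (phenol-red free, 10% FBS) exposed to compounds in qHTS concentration series for 72 h at 37 degrees C. Viability read by CellTiter-Glo luminescence; concentration-effect curves fitted after normalization and correction.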
With COc1c(O)cc(O)c2c(=O)cc(-c3ccccc3)oc12 the Potency was inconclusive: 8.2 µM [rising, partial curve, poor fit].
With CC(C)COC(=O)n1c(=O)oc2cc(S(=O)(=O)N3CCCCC3)ccc21 the “activity change, negative = cytotoxicity” value was inactive: -15.8%.
For CCCn1c(CCC(=O)Nc2ccc(OCC)cc2)nc2cccnc21, the Potency was inconclusive: 2.59 µM [cytotoxic, full curve, poor fit].
For CC1CCN(S(=O)(=O)c2cccc(C(=O)N3CCN(c4ccc(F)cc4)CC3)c2)CC1, the Potency was inconclusive: 2.91 µM [cytotoxic, full curve].
With Cc1nc(C)c(C(=O)NNS(=O)(=O)c2ccc3ccccc3c2)s1 the Potency was inconclusive: 29.1 µM [cytotoxic, single point].
With O=C1CC(/C=C/c2ccncc2)=Nc2ccccc2N1 the Potency was inconclusive: 18.4 µM [cytotoxic, single point].
In the case of COc1cccc(CN(C)C(=O)c2cc(-c3ccc(F)cc3)nc3ccccc23)c1, the Potency is reported as inconclusive: 4.61 µM [cytotoxic, full curve].
For Brc1ccc2ncnc(NCc3ccccc3)c2c1, the Potency was inconclusive: 4.61 µM [cytotoxic, full curve].
With CCOC(=O)N1CCN(C(=O)c2cc(COc3ccc(Cl)cc3OC)on2)CC1 the Potency was inconclusive: 0.731 µM [cytotoxic, full curve, poor fit].
For COc1cccc(CNCc2cccnc2)c1OCc1ccccc1, the Potency was inconclusive: 8.2 µM [cytotoxic, partial curve].
In the case of CCOC1=C2[C@H](c3ccccc3)N(S(=O)(=O)c3ccc(C)cc3)C(C(C)(C)C)[C@H]2n2c(=O)n(-c3ccccc3)c(=O)n2C1 (some centres undefined), the “activity change, negative = cytotoxicity” value is reported as inactive: 14.2%.
For C=CCNC(=O)COC(=O)COc1ccc(Cl)cc1C, the Potency was inconclusive: 2.59 µM [rising, partial curve].
With C=CCC[C@@H](Cc1ccc(F)cc1)C(=O)OC[C@@H](NC(=O)[C@@H](CC=C)CC(=O)N[C@@H](CO)Cc1ccccc1)C(C)(C)C the Potency was inconclusive: 32.6 µM [cytotoxic, single point].
With CNC(=O)C(=O)N/N=C/c1cccnc1 the Potency was inconclusive: 23.1 µM [rising, partial curve, poor fit].
For Cc1nc(-c2ccccc2)cc(-c2ccccc2)n1, the “activity change, negative = cytotoxicity” value was inactive: -8.61%.
For CCOc1cccc(/C=N/Nc2nc(N3CCCC3)nc(N3CCCC3)n2)c1O, the Potency was inconclusive: 7.31 µM [cytotoxic, partial curve, poor fit].
For CCOC(=O)C1=C[C@@H](c2ccccc2)N(S(=O)(=O)c2ccc(C)cc2)[C@H]1c1cccc(Cl)c1, the Potency was inconclusive: 29.1 µM [cytotoxic, single point].
For Cc1scc(C(=O)N2CCN(S(C)(=O)=O)CC2)c1-c1ccccc1, the Potency was active: 23.1 µM.
In the case of CN1CCN(C(=O)Nc2ccc3c(c2)N(C)C(=O)c2ccccc2S3)CC1, the “activity change, negative = cytotoxicity” value is reported as inactive: -3.62%.
For CN(C)c1oc(-c2ccccc2)nc1C#N, the Potency was inconclusive: 18.4 µM [cytotoxic, single point].
With Cc1cccc(N(CC(=O)Nc2ccccc2F)S(C)(=O)=O)c1 the Potency was active: 23.1 µM.
For COc1ccc(C2=NNC(=Nc3cc(S(=O)(=O)N(C)C)ccc3C)SC2)c(OC)c1, the Potency was inconclusive: 23.1 µM [cytotoxic, single point].
In the case of Cc1cc(C)cc(-n2c(SCC(=O)N3CCOCC3)nc3c([nH]c4ccccc43)c2=O)c1, the Potency is reported as inconclusive: 29.1 µM [cytotoxic, single point].
In the case of CCCNC(=O)CN1CCN(c2cc3ccccc3c(Cl)n2)CC1, the Potency is reported as inconclusive: 13 µM [cytotoxic, partial curve].
For CCn1cc(C(=O)NC(C)C2CC3CCC2C3)cn1 (centres undefined), the activity change, negative = cytotoxicity was inconclusive: 36.6%.
With Cc1ccc(NS(=O)(=O)c2ccc3[nH]c4c(c3c2)CCCC4)cc1N(C)C the “activity change, negative = cytotoxicity” value was inactive: 2.85%.
In the case of CC(C)CC(COCc1cccc(C(F)(F)F)c1)N1CCN(C(=O)c2cccc(C(F)(F)F)c2)CCC1=O (centres undefined), the Potency is reported as inconclusive: 18.4 µM [cytotoxic, single point].
With Cc1ccc(C(=O)NCC(c2ccco2)N2CCc3ccccc32)cc1 (centres undefined) the Potency was inconclusive: 7.31 µM [cytotoxic, partial curve].
With C=CCNC(=S)Nc1sc2c(c1C(=O)OCC)CC(C)(CC)OC2 (centres undefined) the Potency was inconclusive: 23.1 µM [cytotoxic, single point].
For CCOc1ccc(C2C(C(=O)c3ccc(C)o3)=C(O)C(=O)N2c2nc(C)c(C(=O)OC)s2)cc1 (centres undefined), the Potency was inconclusive: 29.1 µM [cytotoxic, single point].
With Cc1ccc(S(=O)(=O)n2c(N)nc3cc(C)c(C)cc32)cc1 the Potency was inconclusive: 18.4 µM [cytotoxic, partial curve, poor fit].
For COc1ccc(NC(=O)CSc2c(C)nn(-c3nnc(C)c(=O)[nH]3)c2C)cc1, the “activity change, negative = cytotoxicity” value was inactive: 5%.
For COc1cc(/C=N/n2cnnc2)ccc1OC(=O)c1ccco1, the Potency was inconclusive: 4.11 µM [rising, full curve, poor fit].
In the case of C=C(C)COc1ccc(C2NC(=O)c3ccccc3O2)cc1OCC (centres undefined), the Potency is reported as inconclusive: 29.1 µM [rising, single point].
With O=C(Nc1cnn(Cc2ccc(Cl)cc2)c1)c1ccc([N+](=O)[O-])cc1 the Potency was inconclusive: 23.1 µM [cytotoxic, single point].
In the case of Cc1ccccc1Cn1nc(C)c(NC(=O)C2(C)CC2(Cl)Cl)c1C (centres undefined), the Potency is reported as inconclusive: 29.1 µM [cytotoxic, single point].
For Cc1cccc(N=C2NC(=O)/C(=C\c3cccs3)S2)c1, the “activity change, negative = cytotoxicity” value was inactive: -9.98%.
With Cc1nc2ccccc2c2oc(C(=O)N3CCCC(C)C3)cc12 (centres undefined) the “activity change, negative = cytotoxicity” value was inactive: -3.82%.
For COc1cc(NC(=O)c2ccccc2)c(OC)cc1NC(=O)Cc1ccc(Br)cc1, the “activity change, negative = cytotoxicity” value was inactive: -13.8%.
With O=C(COC(=O)CN1C(=O)NC2(CCCC2)C1=O)Nc1ccccc1C(F)(F)F the Potency was inconclusive: 32.6 µM [cytotoxic, single point].
With CC(=O)Nc1ccc(NC(=O)C2CCCN2C(=O)NCc2ccccc2)cc1 (centres undefined) the “activity change, negative = cytotoxicity” value was inactive: 5.17%.
In the case of COc1ccc(CCNC(=O)c2c(C)noc2C)cc1, the “activity change, negative = cytotoxicity” value is reported as inactive: 2.98%.
For CSc1nnc(Cn2c(=O)sc3ccccc32)n1-c1cccc(Cl)c1, the Potency was inconclusive: 29.1 µM [cytotoxic, single point].
With Cc1cccc(NC(=O)CS(=O)CC(=O)Nc2cnc3ccccc3c2)c1C (centres undefined) the Potency was inconclusive: 29.1 µM [rising, single point].
For CC1CC(=O)N(CC(=O)NCc2ccc3c(c2)OCO3)c2ccccc2S1 (centres undefined), the Potency was active: 20.6 µM.
For COc1ccc(C(CCNCc2ccccc2F)c2ccc(F)cc2)cc1 (centres undefined), the Potency was active: 14.6 µM.
For CN(c1ccccc1)S(=O)(=O)c1ccc(Cl)nc1, the “activity change, negative = cytotoxicity” value was inactive: 0.565%.
In the case of Cc1ccc(S(=O)(=O)N2CCCCC2)cc1C(=O)OC1CCCCC1=O (centres undefined), the “activity change, negative = cytotoxicity” value is reported as inactive: 10.4%.
In the case of CCSc1nnc(NC(=O)C(NC(=O)c2ccc(Cl)cc2)C(C)C)s1 (centres undefined), the Potency is reported as active: 11.6 µM.
For O=C(Nc1nncs1)c1cccc(S(=O)(=O)N2CCCCC2)c1, the Potency was inconclusive: 1.64 µM [rising, full curve, poor fit].
For N=c1c2c(-c3ccccc3)c(-c3ccccc3)n(Cc3ccccc3)c2ncn1CCCO, the Potency was inconclusive: 5.17 µM [cytotoxic, full curve].
With COCCCN1C(=O)C(CC(=O)NCc2ccco2)CC(C(=O)N(C)C)=C1C (centres undefined) the Potency was inconclusive: 0.0082 µM [rising, full curve, poor fit].
In the case of Cc1cc2[nH]c(=O)c(=O)[nH]c2cc1S(=O)(=O)Nc1cccc(Cl)c1, the activity change, negative = cytotoxicity is reported as inconclusive: -0.875%.
In the case of O=C(Nc1ncc([N+](=O)[O-])s1)c1ccc2c(c1)OCO2, the Potency is reported as inconclusive: 25.9 µM [cytotoxic, single point].
In the case of COc1ccc(Oc2ncnc3sccc23)cc1, the Potency is reported as inconclusive: 20.6 µM [cytotoxic, single point].
For Cc1cc(=O)[nH]c(SCC(=O)c2ccc(F)c(C)c2)n1, the “activity change, negative = cytotoxicity” value was inactive: -10.9%.
In the case of CC1(OC(=O)CCc2ccccc2)C(=O)C=C2C=C(c3ccc(C#N)cc3)N(Cc3ccccc3)C=C2C1=O (centres undefined), the “activity change, negative = cytotoxicity” value is reported as inactive: -2.86%.
With O=C1OC(c2ccccc2)(c2ccccc2)c2ccccc21 the “activity change, negative = cytotoxicity” value was inactive: -2.54%.
In the case of CC(C)CCNC(=O)COc1ccc2c3c(c(=O)oc2c1)CCC3, the Potency is reported as inconclusive: 11.6 µM [cytotoxic, partial curve].
With Cc1nnc(NC(=O)CSc2nc(C(C)C)nc3ccccc23)s1 the Potency was inconclusive: 18.4 µM [cytotoxic, single point].
In the case of COC(=O)c1cccc(NC(=O)COc2cccc([N+](=O)[O-])c2)c1, the Potency is reported as inconclusive: 25.9 µM [cytotoxic, partial curve, poor fit].
In the case of COc1ccc(CCNC(=S)NC(=O)/C=C/c2ccc(C)cc2)cc1OC, the Potency is reported as inconclusive: 11.6 µM [cytotoxic, partial curve, poor fit].
With O=C(c1cccc(S(=O)(=O)Nc2ccccc2Cl)c1)N1CCN(c2ccccc2O)CC1 the “activity change, negative = cytotoxicity” value was inactive: 10.6%.
In the case of COc1ccc(N2CCN(C(=O)CSc3nnc4c(C)cc5ccc(C)c(C)c5n34)CC2)cc1, the “activity change, negative = cytotoxicity” value is reported as inactive: -4.08%.
With CCn1cnc2c(NCCc3cccnc3)nc(C#N)nc21 the Potency was inconclusive: 5.8 µM [rising, full curve].
For COC(=O)[C@@H]1C[C@@]2(O)[C@H](O)[C@H](O)[C@H](O)C[C@H]2N1Cc1cc(F)ccc1F, the Potency was inconclusive: 29.1 µM [rising, single point].
In the case of COc1ccccc1C(=O)COC(=O)c1cc([N+](=O)[O-])ccc1N1CCOCC1, the Potency is reported as inconclusive: 7.31 µM [cytotoxic, partial curve].
With CC(=O)Oc1ccc(-c2nc3c(C)cccc3c(=O)o2)cc1 the Potency was inconclusive: 29.1 µM [rising, single point].
For O=c1[nH]c(CN2CCN(S(=O)(=O)/C=C/c3ccccc3)CC2)nc2cc(Cl)ccc12, the Potency was inconclusive: 10.3 µM [cytotoxic, partial curve].

— PubChem BioAssay AID1347076 (National Center for Advancing Translational Sciences (NCATS), 2019)
% is set by controls: 0 for no effect and ±100 for the full control effect; potency is the fitted concentration of half-maximal effect.
